The target of test [1] is T1, Flag-tagged truncated form of Drosophila Ash1 (Ash1C, amino acids 1146–2226) (Drosophila) (UniProt Q9VW15).
T1 sequence: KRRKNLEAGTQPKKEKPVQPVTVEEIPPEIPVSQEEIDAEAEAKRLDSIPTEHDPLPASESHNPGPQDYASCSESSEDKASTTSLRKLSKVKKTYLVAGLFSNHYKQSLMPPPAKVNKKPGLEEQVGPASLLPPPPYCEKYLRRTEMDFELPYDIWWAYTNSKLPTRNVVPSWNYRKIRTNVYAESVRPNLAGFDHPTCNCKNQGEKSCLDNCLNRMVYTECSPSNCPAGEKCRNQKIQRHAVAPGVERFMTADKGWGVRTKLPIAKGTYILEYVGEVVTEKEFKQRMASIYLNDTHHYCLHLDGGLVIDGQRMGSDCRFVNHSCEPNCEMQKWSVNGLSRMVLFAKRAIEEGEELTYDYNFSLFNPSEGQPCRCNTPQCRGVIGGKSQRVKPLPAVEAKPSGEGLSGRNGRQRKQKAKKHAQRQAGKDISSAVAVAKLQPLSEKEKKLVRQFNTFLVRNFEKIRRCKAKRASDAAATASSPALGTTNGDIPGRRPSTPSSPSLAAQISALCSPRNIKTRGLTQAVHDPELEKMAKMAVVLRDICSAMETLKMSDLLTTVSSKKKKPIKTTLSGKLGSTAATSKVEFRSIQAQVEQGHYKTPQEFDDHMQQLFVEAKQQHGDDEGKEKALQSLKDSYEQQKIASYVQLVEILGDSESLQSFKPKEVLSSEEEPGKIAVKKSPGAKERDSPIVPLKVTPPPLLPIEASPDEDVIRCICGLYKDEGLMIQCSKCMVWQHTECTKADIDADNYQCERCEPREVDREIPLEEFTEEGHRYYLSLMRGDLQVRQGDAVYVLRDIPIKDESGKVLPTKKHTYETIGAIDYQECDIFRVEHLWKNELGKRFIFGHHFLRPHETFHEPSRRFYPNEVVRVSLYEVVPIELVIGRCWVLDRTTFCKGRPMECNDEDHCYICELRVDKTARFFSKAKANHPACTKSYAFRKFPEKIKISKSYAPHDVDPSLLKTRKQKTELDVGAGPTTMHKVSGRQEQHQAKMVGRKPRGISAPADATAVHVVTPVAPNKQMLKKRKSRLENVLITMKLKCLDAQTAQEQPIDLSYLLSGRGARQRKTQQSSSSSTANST
Briefly: affinity purification with mass spectrometry; Anti-Flag M2 affinity gel incubated with nuclear extract (Buffer C, 420 mM NaCl) of S2 cells stably expressing Flag-Ash1C or Flag-tagged full-length Ash1, overnight at 4 °C; washed with 500 mM KCl, 0.1% NP40; eluted with Flag peptide; SDS-PAGE, silver staining, MALDI-TOF/TOF of cut bands.

By UniProt entry, the sequences of proteins in these tests, tags left out.
UniProt Q24572: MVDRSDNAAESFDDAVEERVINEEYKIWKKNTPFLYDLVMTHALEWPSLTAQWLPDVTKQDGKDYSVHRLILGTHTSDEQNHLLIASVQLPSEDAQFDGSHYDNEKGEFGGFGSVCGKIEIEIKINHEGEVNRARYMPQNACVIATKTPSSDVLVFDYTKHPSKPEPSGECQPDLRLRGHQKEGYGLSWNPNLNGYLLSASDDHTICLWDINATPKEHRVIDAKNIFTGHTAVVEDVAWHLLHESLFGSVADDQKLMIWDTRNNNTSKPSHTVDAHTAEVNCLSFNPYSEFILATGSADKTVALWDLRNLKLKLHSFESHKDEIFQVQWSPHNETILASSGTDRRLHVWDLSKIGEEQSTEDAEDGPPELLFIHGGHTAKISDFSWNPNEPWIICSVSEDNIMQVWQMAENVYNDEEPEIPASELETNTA

Test [2] deals with Flag-tagged full-length Drosophila Ash1 (Drosophila) (UniProt Q9VW15). The test is described as above.

Results are given in words; binding and its absence hold for the method and conditions named. In cells and extracts the contact can be indirect. Here binding means that the protein was enriched with, or labelled near, the bait; the list need not be complete. For some of these results: Where a sequence is shown, tags or fusion partners need not be part of it.

Consider “Drosophila Nurf55 (from UniProt Q24572 1-430)”, for which the binding entry in test [1] and in test [2] was “binds” each time.

B1: Drosophila Mrg15 (protein, UniProt Q9Y0I1 1-424)
chain: MGEVKPAKVENYSTGTDANTLFVDGERVLCFHGPLIYEAKVLKTKPDATPVEYYIHYAGWSKNWDEWVPENRVLKYNDDNVKRRQELARQCGERSKKDNKKGSAKAKKMEQMRNESRASTPSKDSNTSQSTASSTPTTSAGPGSKSEAGSTGTTTTNSTANSTTSRAHRKSTQSTPSTARPGTPSDKKEDPAAAETTEEEGPVAPKKKRMSEQRPSLTGSDVAEKPLPPTTTPSTPTTEPAPCVESEEAYAAKVEVKIKIPDELKHYLTDDWYAVVREHKLLELPAKVTVQQISEQYLAHKKSVKSTSASKEVAINDVLDGIVEYFNVMLGSQLLYKFERTQYADVMQKHPDTPLSELYGSFHLLRLFVRLGSMLSYSALDQQSMQNLLTHVQDFLKFLVKNSSIFFSMSNFINVDPEYVRNAQ
Regarding B1, the binding entry in test [1] and in test [2] was “binds” throughout.

For the origin of these results see PMC5696344.
